The source of these data is ChEMBL document CHEMBL2073809, “Interrelationship between substrates and inhibitors of human CYP3A and P-glycoprotein” (Pharm Res, 1999).

Chains of the proteins cited; added tags and fusions are not shown.
UniProt P08183, whole entry: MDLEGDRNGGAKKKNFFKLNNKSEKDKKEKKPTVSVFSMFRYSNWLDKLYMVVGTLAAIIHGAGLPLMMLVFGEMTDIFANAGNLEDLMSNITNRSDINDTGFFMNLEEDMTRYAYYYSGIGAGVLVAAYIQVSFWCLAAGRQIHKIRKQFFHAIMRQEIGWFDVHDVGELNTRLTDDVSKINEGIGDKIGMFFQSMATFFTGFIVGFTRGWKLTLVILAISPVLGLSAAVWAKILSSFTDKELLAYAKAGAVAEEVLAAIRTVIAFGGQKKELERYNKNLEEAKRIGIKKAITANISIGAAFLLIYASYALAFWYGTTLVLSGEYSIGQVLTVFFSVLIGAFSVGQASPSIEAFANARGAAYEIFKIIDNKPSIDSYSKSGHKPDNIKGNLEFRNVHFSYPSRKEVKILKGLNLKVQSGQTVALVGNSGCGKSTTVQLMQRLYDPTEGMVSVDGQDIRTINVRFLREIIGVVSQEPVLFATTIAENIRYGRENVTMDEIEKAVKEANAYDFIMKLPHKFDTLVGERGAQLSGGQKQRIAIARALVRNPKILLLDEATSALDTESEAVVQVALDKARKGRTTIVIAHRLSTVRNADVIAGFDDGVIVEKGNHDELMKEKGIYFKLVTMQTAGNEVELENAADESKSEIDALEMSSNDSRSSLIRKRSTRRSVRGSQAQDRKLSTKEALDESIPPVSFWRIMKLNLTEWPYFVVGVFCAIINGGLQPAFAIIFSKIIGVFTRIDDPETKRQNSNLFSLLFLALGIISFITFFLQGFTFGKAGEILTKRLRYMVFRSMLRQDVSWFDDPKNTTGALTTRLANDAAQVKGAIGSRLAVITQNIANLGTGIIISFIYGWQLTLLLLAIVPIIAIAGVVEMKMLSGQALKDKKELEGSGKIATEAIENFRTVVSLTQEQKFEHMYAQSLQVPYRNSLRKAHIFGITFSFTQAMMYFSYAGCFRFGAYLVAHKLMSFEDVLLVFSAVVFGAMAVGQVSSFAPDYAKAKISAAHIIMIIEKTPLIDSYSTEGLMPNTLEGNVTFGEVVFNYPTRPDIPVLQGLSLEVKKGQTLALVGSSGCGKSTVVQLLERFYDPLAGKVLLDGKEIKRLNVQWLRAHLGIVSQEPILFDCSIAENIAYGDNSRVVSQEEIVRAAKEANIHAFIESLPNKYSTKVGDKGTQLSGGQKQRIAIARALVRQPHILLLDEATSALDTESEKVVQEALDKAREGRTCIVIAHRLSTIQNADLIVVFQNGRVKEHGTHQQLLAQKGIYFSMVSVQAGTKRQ

The structures appear in SMILES notation.

The target in the series is ABCB1 (P-glycoprotein) (Homo sapiens, UniProt P08183). The series is described as follows: in vitro. Particulars: Caco-2.

With `COC(=O)C1=C(C)NC(C)=C(C(=O)OC)C1c1ccccc1[N+](=O)[O-]` [NIFEDIPINE], the inhibition (commonly the share of the control response that was lost under treatment) at 100 µM turned out to be 56%.
